Paper PMC8324300

How the values were obtained:
[1] = biological target: T1, GST-CHMP7 393-CT ES-RR (human) (UniProt Q8WUX9); assay: pull-down; GST-tagged CHMP7 fragments and YFP-VPS4^MIT co-expressed in 293T cells; lysis in 150 mM NaCl, 50 mM Tris-Cl pH 7.4, 1% NP-40; capture on glutathione sepharose for 2 hr; blots with anti-GST and anti-GFP
T1 sequence: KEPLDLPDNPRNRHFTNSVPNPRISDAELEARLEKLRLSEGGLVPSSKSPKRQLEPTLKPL

GST-CHMP7 393-CT (human) = biological target: T2, GST-CHMP7 393-CT (human) (UniProt Q8WUX9); assay: as above
T2 sequence: T1 sequence with R32E, R37S

binding [1]: binds
binding (GST-CHMP7 393-CT (human)): no binding
Substance: YFP-VPS4^MIT (VPS4 MIT domain, residues 1-122) (domain or fragment)

Positions count from the first letter of the chain named. Results are given in words; binding and its absence hold for the method and conditions named. In cells and extracts the contact can be indirect. For some assays here: A result given as binding can be weak or reduced; the word gives no strength. Sequences can lack the tags named with a protein.
